Source: patent US20040014721A1, “Method for using tethered bis(polyhydroxyphenyls) and O-alkyl derivatives thereof in treating inflammatory conditions of the central nervous system” (Oklahoma Medical Research Foundation, priority 2002, published 2004)

Columns and labels:
mice = details: oral route; cited from earlier work
EOC-20 cells = details: Table III; MTT viability; by extrapolation through sublethal concentrations
Protocol: Lower IC50 values indicate improved efficacy. FIG. 2 illustrates the principle of the measurement using NDGA as an example test agent. In order to determine viability, cell culture medium was replaced with phenol-free DMEM (Gibco) containing 20 μL/mL of MTT viability reagent (Promega). […] Control cells were taken to indicate 100% viability and intermediate values of MTT reduction were scaled to percentage of control. For each compound, an LD50 value was determined by extrapolation through sublethal concentrations. This value represents the concentration that reduced the MTT viability parameter by 50%.

Nc1nc2ccc(OC(F)(F)F)cc2s1 [Riluzole]
LD50 (mice): 94 mg/kg
LD50 (EOC-20 cells): nontoxic
